Experimental data taken from PubChem BioAssay AID1487 (National Center for Advancing Translational Sciences (NCATS), 2009).
Some of the results follow. Shown are side measurements of this screen, not its main read-out; they come without a call. Most of these compounds were active or inconclusive in the main read-out, so they are no random draw. Potencies come from curve fits of mixed quality, noted in brackets.

Experiment: qHTS Assay for Modulators of Lamin A Splicing
Details: HeLa LMNA splicing GFP/RFP minigene ratio, 48 h
Method in brief: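 S3 HeLa cells stably expressing lamin A-EGFP splicing minigene plus DsRed2, 600 cells/well, 48 h compound exposure at 37C. Laser-scanning cytometry; analysed as GFP (500-530 nm)/RFP (575-640 nm) total intensity ratio; 0.5% DMSO vehicle.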

[1] = measured here: GFP splicing reporter channel
[2] = measured here: RFP viability control channel

Structure (SMILES)	AC50 [1]	AC50 [2]
CCc1ccccc1NC(=O)Nc1cc(C(=O)NCc2ccc(OC)cc2)ccc1N1CCCC1	17.8 µM [falling, single point]	17.8 µM [falling, partial curve]
COCCCNC(=O)COc1ccc(Br)cc1Cl	15.8 µM [rising, partial curve, poor fit]	0.708 µM [rising, partial curve, poor fit]
CC(C)=CCN1CCN(Cc2cccn2-c2ncccn2)CC1CCO (stereo not drawn)		35.5 µM [rising, single point]
c1c2c(cc3sc(N4CCCCC4)nc13)OCO2		20 µM [rising, single point]
CC1(C)O[C@@H]2C[C@H]3[C@@H]4C[C@H](F)C5=CC(=O)C=C[C@]5(C)[C@@]4(F)[C@@H](O)C[C@]3(C)[C@]2(C(=O)CO)O1	5.62 µM [rising, partial curve, poor fit]	35.5 µM [rising, single point]
O=C(CCc1ccc(Oc2cc([N+](=O)[O-])cc([N+](=O)[O-])c2)cc1)Nc1cccc(Cl)c1		35.5 µM [rising, single point]
Cc1ccc(N=Cc2nc(-c3ccc(C)cc3)oc2O)cc1	5.62 µM [rising, single point]	
O=C(c1ccc(Cl)cc1)C1CCCN(C(=O)/C=C/c2ccccn2)C1 (stereo not drawn)	12.6 µM [falling, partial curve]	0.0794 µM [falling, full curve, poor fit]
CC(C)(C)C(=O)N1CCC[C@H]1C(O)(c1ccccc1)c1ccccc1	2.24 µM [rising, full curve, poor fit]	5.62 µM [rising, full curve]
O=C(NCc1ccco1)c1cc(S(=O)(=O)N2CCCc3ccccc32)ccc1Cl	8.91 µM [rising, partial curve]	35.5 µM [rising, single point]
CCN(c1ccccc1)S(=O)(=O)c1ccc2[nH]cc(C(=O)NCc3ccc(C)cc3)c(=O)c2c1	15.8 µM [falling, partial curve, poor fit]	15.8 µM [falling, partial curve]
CCOC(=O)c1c(CSc2ccc(C)cc2)oc2ccc(O)cc12	31.6 µM [rising, single point]	35.5 µM [rising, single point]
COc1cccc(NC(=O)C(OC(=O)/C=C/c2ccc3c(c2)OCO3)c2ccccc2)c1 (stereo not drawn)		3.98 µM [falling, single point]
COc1ccc(-c2nnc(SC)o2)c(OC)c1		0.0631 µM [rising, full curve]
N#CCCn1c(=O)c(-c2cccs2)nc2cnc(Nc3ccccc3)nc21	12.6 µM [falling, partial curve]	7.94 µM [falling, partial curve]
OCCNCc1cc(Br)ccc1OCc1ccccc1Cl		17.8 µM [rising, single point]
Cc1ccc(C2(CC(=O)Nc3nccs3)CCOC(C(C)C)C2)cc1 (stereo not drawn)	35.5 µM [rising, single point]	35.5 µM [rising, single point]
CCOc1ccc(C(C)NC(=O)c2cccc(F)c2)cc1 (stereo not drawn)	11.2 µM [rising, single point]	20 µM [rising, single point]
Cc1cc(C)nc(NS(=O)(=O)c2ccc(N)cc2)n1	0.2 µM [falling, single point]	
O=c1[nH]c(=O)n(Cc2ccccc2)c2nc(-c3ccco3)cc(C(F)(F)F)c12	12.6 µM [rising, partial curve]	
COc1ccc(-c2nc3sc(CCNS(=O)(=O)c4ccc(F)c(C)c4)c(C)n3n2)cc1	5.01 µM [falling, partial curve]	35.5 µM [falling, partial curve, poor fit]
Cc1cc(S(=O)(=O)NCC(c2ccc(N(C)C)cc2)N2CCOCC2)ccc1F (stereo not drawn)	1.58 µM [rising, partial curve, poor fit]	
CCCCCC1CC(=O)N(Cc2ccc(Cl)cc2)C(=O)N1 (stereo not drawn)	14.1 µM [rising, partial curve]	35.5 µM [rising, single point]
O=C(COc1ccccc1)NNc1nc2c(F)cccc2s1		3.16 µM [rising, full curve, poor fit]
CCOC(=O)N1CCN(C(=O)COc2ccc(Br)cc2Cl)CC1	12.6 µM [rising, single point]	
Fc1cc(F)cc(NC(=S)N2CCC(c3ccccc3)C2)c1 (stereo not drawn)	3.98 µM [rising, single point]	
CCOC(=O)N1CCC(NC(=O)c2cc(S(=O)(=O)N3CCOCC3)ccc2F)CC1	17.8 µM [rising, partial curve, poor fit]	

In another format: 2 of the compounds above
Structure (SMILES) | AC50 [1] | AC50 [2]
CC1(C)O[C@@H]2C[C@H]3[C@@H]4C[C@H](F)C5=CC(=O)C=C[C@]5(C)[C@@]4(F)[C@@H](O)C[C@]3(C)[C@]2(C(=O)CO)O1 | 5.62 µM [rising, partial curve, poor fit] | 35.5 µM [rising, single point]
O=C(CCc1ccc(Oc2cc([N+](=O)[O-])cc([N+](=O)[O-])c2)cc1)Nc1cccc(Cl)c1 |  | 35.5 µM [rising, single point]

Next part.

Structure (SMILES)	AC50 [1]	AC50 [2]
CN(C(=O)CN(CCO)CC(=O)N(C)C(C)(C)Cc1ccccc1)C(C)(C)Cc1ccccc1	0.0562 µM [falling, single point]	0.0447 µM [falling, single point]
O=C(Nc1ccc(Cl)cc1)c1csc(Cc2ccccc2)n1	17.8 µM [falling, partial curve, poor fit]	
O=C(COC(=O)CC1CC2CCC1C2)Nc1cc([N+](=O)[O-])ccc1F (stereo not drawn)		0.708 µM [rising, full curve, poor fit]
Cn1nc(C(F)(F)F)c(C#N)c1N1CCN(c2ccccc2)CC1		12.6 µM [rising, partial curve, poor fit]
O=C(CCC(=O)N1CCN(S(=O)(=O)c2ccc(Cl)cc2)CC1)Nc1ccc2ccccc2c1		25.1 µM [rising, single point]
O=C1C(c2ccc(F)cc2)N(Cc2ccc3c(c2)OCO3)C(=O)CN1C1CCCC1 (stereo not drawn)	11.2 µM [rising, partial curve, poor fit]	
COc1cccc(C(=O)N2CCN(C(=O)c3ccc(-c4ccccc4)cc3)CC2)c1OC	35.5 µM [falling, single point]	35.5 µM [falling, single point]
Cc1c(/C=N/NC(=O)c2ccc(O)cc2)c2ccccn2c1C(=O)c1ccc(F)cc1	35.5 µM [rising, single point]	35.5 µM [rising, partial curve]
O=c1cnc2cncnc2n1Cc1ccc(F)cc1	3.98 µM [falling, full curve]	3.98 µM [falling, full curve]
Cc1[nH]c(=O)[nH]c(=O)c1S(=O)(=O)N1CCN(c2cccc(Cl)c2)CC1		0.0562 µM [falling, full curve, poor fit]
Cc1cccc(Cn2cc(C(=O)Nc3ccc(S(N)(=O)=O)cc3)ccc2=O)c1	11.2 µM [falling, partial curve]	0.891 µM [falling, full curve]
COc1cccc(N2CCN(c3c4c(nc5ncnn35)CCC4)CC2)c1	12.6 µM [rising, partial curve]	10 µM [rising, partial curve]
COC(=O)c1c(NC(=O)CN2CCC3(O)CCCCC3C2c2cc(OC)ccc2OC)sc(C)c1C (stereo not drawn)	8.91 µM [rising, partial curve]	14.1 µM [rising, partial curve]
COc1ccc(Cl)cc1NC(=O)N1CCC(CN2CCCCCC2)CC1		7.08 µM [falling, partial curve, poor fit]
CSc1cccc(NC(=O)Cn2cnc(S(=O)(=O)N3CCCC3)c2)c1		12.6 µM [rising, partial curve, poor fit]
O=C(Nc1ccccc1OCc1cc(=O)n2ccccc2n1)c1ccccc1F		0.0251 µM [rising, full curve, poor fit]
Cc1ccc(C(=O)NC(NC(=S)Nc2ccc(S(N)(=O)=O)cc2)C(Cl)(Cl)Cl)cc1 (stereo not drawn)		35.5 µM [rising, single point]
O=C(NCc1ccc2c(c1)OCO2)C1CCCN(S(=O)(=O)c2cccc3cccnc23)C1 (stereo not drawn)		14.1 µM [rising, single point]
CC(=O)N1c2ccc(Cl)cc2C2C=CCC2C1c1cccc2ccccc12 (stereo not drawn)	15.8 µM [falling, partial curve, poor fit]	14.1 µM [falling, partial curve, poor fit]
CCOC(=O)c1c(C)nc(-c2ccccc2)nc1NC(C)=O		7.08 µM [rising, partial curve, poor fit]
Cc1cccc(Nc2nc(NCc3ccco3)c3ccccc3n2)c1	2 µM [rising, partial curve]	3.55 µM [rising, partial curve]
Cc1ccc(OCC(=O)Nc2ccc(N3CCN(C(=O)c4ccco4)CC3)cc2)cc1C	10 µM [falling, partial curve]	1.41 µM [falling, full curve]
COC(=O)CSc1nc(C)cc(C)n1	3.16 µM [rising, partial curve, poor fit]	
Cc1ccc2cccc(OCCOCCOc3ccccc3Br)c2n1	15.8 µM [rising, single point]	14.1 µM [rising, single point]
Cc1sc2ncnc(Sc3nnnn3-c3ccccc3)c2c1C		12.6 µM [rising, partial curve]
CN(C)C(=O)c1ccc2c(c1)C1C3CCC(C3)C1C(c1ccccc1)N2 (stereo not drawn)	35.5 µM [rising, single point]	35.5 µM [rising, single point]

Quoted from the listing:
For AC50 [2], Cc1[nH]c(=O)[nH]c(=O)c1S(=O)(=O)N1CCN(c2cccc(Cl)c2)CC1 has 0.0562 µM [falling, full curve, poor fit]
For AC50 [2], CSc1cccc(NC(=O)Cn2cnc(S(=O)(=O)N3CCCC3)c2)c1 has 12.6 µM [rising, partial curve, poor fit]
For AC50 [2], CCOC(=O)c1c(C)nc(-c2ccccc2)nc1NC(C)=O has 7.08 µM [rising, partial curve, poor fit]
